Test results as given in paper doi:10.1101/2025.01.24.634708.
These are yes or no findings as the source states them, for the method shown. Binding seen in cells or lysates may run through a third protein. A yes stands for co-enrichment or nearness to the bait. Other partners may have been found. For some of these results: Sequences can lack the tags named with a protein.

Sequences of proteins named here, by UniProt entry; tags and fusion partners are left off.
UniProt Q13395: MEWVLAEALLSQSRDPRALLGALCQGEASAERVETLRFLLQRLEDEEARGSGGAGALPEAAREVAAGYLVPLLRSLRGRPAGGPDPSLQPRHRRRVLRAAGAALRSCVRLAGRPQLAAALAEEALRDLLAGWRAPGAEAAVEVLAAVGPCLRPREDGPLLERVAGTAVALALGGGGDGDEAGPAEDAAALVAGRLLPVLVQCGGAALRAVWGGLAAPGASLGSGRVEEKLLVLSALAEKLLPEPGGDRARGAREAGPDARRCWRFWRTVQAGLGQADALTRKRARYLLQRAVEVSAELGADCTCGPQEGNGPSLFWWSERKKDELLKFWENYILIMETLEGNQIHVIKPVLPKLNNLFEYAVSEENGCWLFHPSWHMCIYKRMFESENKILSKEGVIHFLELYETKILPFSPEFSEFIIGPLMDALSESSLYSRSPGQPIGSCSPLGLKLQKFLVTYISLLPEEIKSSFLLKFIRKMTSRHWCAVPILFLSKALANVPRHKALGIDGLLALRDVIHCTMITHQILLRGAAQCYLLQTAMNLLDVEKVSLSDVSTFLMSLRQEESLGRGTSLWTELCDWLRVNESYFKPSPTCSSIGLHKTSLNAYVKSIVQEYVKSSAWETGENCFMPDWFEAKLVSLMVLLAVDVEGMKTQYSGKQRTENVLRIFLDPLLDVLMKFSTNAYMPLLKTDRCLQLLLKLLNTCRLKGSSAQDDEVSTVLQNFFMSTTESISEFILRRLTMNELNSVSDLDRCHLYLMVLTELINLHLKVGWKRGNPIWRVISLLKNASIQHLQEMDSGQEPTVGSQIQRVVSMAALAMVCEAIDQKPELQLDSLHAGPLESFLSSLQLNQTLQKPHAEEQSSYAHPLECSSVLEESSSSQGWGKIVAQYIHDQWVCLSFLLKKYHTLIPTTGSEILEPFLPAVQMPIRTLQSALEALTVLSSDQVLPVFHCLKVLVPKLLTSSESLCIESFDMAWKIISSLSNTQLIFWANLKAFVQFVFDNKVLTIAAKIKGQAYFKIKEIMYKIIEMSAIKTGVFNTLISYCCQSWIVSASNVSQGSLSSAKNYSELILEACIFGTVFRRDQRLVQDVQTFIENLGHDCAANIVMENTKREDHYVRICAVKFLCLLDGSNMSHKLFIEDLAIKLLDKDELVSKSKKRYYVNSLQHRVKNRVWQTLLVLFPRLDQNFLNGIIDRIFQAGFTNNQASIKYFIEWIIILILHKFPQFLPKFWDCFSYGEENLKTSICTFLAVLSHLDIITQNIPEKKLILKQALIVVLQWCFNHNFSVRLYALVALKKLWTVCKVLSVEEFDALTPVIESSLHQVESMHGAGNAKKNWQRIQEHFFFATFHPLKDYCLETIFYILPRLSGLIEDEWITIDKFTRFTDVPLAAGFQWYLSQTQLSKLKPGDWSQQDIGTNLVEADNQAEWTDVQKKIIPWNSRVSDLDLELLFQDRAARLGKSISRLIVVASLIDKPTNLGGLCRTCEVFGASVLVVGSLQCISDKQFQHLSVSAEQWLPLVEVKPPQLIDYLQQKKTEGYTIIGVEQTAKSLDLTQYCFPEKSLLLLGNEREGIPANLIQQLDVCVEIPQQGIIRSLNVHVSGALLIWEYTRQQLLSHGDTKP

T1: ZBTB2 with a C-terminal FLAG and HA tag (human (cDNA from Jurkat cells)) (UniProt Q8N680)
T1 sequence: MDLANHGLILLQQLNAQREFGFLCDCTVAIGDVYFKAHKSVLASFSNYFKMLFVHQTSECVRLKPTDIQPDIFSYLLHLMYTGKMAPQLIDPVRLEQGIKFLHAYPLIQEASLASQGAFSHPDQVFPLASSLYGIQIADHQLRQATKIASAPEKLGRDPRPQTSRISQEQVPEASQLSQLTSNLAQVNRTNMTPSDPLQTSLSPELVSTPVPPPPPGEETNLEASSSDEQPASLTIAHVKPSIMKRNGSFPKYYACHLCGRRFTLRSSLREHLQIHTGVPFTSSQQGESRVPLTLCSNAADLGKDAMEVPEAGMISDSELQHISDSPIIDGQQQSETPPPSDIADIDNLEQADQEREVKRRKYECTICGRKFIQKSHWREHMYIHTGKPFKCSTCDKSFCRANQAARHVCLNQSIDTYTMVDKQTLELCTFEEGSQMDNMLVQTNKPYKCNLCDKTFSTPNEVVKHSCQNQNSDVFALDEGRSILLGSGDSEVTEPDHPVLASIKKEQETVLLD

T2: ZBTB25 with a C-terminal FLAG and HA tag (human (cDNA from Jurkat cells)) (UniProt P24278)
T2 sequence: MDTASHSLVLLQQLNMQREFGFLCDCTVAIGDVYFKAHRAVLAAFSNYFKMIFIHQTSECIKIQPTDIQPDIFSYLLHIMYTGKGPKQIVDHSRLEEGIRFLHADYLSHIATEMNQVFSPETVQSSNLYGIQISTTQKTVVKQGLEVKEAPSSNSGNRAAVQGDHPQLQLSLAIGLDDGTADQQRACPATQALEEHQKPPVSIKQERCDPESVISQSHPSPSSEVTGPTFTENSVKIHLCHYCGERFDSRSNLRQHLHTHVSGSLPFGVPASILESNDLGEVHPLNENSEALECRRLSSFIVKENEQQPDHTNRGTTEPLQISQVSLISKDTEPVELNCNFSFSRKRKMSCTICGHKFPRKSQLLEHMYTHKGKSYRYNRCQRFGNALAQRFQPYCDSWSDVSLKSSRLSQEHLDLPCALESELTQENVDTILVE

T3: ZNF639 with a C-terminal FLAG and HA tag (human (cDNA from Jurkat cells)) (UniProt Q9UID6)
T3 sequence: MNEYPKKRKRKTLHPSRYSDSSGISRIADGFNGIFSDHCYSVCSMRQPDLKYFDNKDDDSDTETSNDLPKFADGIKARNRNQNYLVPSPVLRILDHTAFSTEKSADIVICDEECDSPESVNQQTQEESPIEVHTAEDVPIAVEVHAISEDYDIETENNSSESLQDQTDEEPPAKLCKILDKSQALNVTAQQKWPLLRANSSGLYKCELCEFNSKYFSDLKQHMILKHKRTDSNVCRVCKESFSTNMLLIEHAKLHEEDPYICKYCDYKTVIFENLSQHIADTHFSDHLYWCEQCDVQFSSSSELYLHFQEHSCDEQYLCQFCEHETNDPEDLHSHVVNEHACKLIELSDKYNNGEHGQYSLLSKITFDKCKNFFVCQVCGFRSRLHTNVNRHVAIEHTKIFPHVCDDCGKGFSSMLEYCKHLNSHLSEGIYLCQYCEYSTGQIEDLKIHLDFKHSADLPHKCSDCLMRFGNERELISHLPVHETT


Assays:
Assay in all cases: affinity purification with mass spectrometry
[1] = target: T1, ZBTB2 with a C-terminal FLAG and HA tag (human (cDNA from Jurkat cells))
[2] = target: T2, ZBTB25 with a C-terminal FLAG and HA tag (human (cDNA from Jurkat cells))
[3] = target: T3, ZNF639 with a C-terminal FLAG and HA tag (human (cDNA from Jurkat cells))
[4] = target: TAR (HIV-1) RNA binding protein 1 (TARBP1) with a C-terminal FLAG and HA tag (human) (UniProt Q13395)

| Molecule | binding [1] | binding [2] | binding [3] | binding [4] |
| --- | --- | --- | --- | --- |
| TAR (HIV-1) RNA binding protein 1 (TARBP1) (from UniProt Q13395 1-1621) | binds | binds | binds |  |
| ZBTB2 (protein, UniProt Q8N680 1-514) MDLANHGLILLQQLNAQREFGFLCDCTVAIGDVYFKAHKSVLASFSNYFKMLFVHQTSECVRLKPTDIQPDIFSYLLHLMYTGKMAPQLIDPVRLEQGIKFLHAYPLIQEASLASQGAFSHPDQVFPLASSLYGIQIADHQLRQATKIASAPEKLGRDPRPQTSRISQEQVPEASQLSQLTSNLAQVNRTNMTPSDPLQTSLSPELVSTPVPPPPPGEETNLEASSSDEQPASLTIAHVKPSIMKRNGSFPKYYACHLCGRRFTLRSSLREHLQIHTGVPFTSSQQGESRVPLTLCSNAADLGKDAMEVPEAGMISDSELQHISDSPIIDGQQQSETPPPSDIADIDNLEQADQEREVKRRKYECTICGRKFIQKSHWREHMYIHTGKPFKCSTCDKSFCRANQAARHVCLNQSIDTYTMVDKQTLELCTFEEGSQMDNMLVQTNKPYKCNLCDKTFSTPNEVVKHSCQNQNSDVFALDEGRSILLGSGDSEVTEPDHPVLASIKKEQETVLLD |  | binds |  | binds |
| ZBTB25 (protein, UniProt P24278 1-435) MDTASHSLVLLQQLNMQREFGFLCDCTVAIGDVYFKAHRAVLAAFSNYFKMIFIHQTSECIKIQPTDIQPDIFSYLLHIMYTGKGPKQIVDHSRLEEGIRFLHADYLSHIATEMNQVFSPETVQSSNLYGIQISTTQKTVVKQGLEVKEAPSSNSGNRAAVQGDHPQLQLSLAIGLDDGTADQQRACPATQALEEHQKPPVSIKQERCDPESVISQSHPSPSSEVTGPTFTENSVKIHLCHYCGERFDSRSNLRQHLHTHVSGSLPFGVPASILESNDLGEVHPLNENSEALECRRLSSFIVKENEQQPDHTNRGTTEPLQISQVSLISKDTEPVELNCNFSFSRKRKMSCTICGHKFPRKSQLLEHMYTHKGKSYRYNRCQRFGNALAQRFQPYCDSWSDVSLKSSRLSQEHLDLPCALESELTQENVDTILVE | binds |  | binds | binds |
| ZNF639 (protein, UniProt Q9UID6 1-485) MNEYPKKRKRKTLHPSRYSDSSGISRIADGFNGIFSDHCYSVCSMRQPDLKYFDNKDDDSDTETSNDLPKFADGIKARNRNQNYLVPSPVLRILDHTAFSTEKSADIVICDEECDSPESVNQQTQEESPIEVHTAEDVPIAVEVHAISEDYDIETENNSSESLQDQTDEEPPAKLCKILDKSQALNVTAQQKWPLLRANSSGLYKCELCEFNSKYFSDLKQHMILKHKRTDSNVCRVCKESFSTNMLLIEHAKLHEEDPYICKYCDYKTVIFENLSQHIADTHFSDHLYWCEQCDVQFSSSSELYLHFQEHSCDEQYLCQFCEHETNDPEDLHSHVVNEHACKLIELSDKYNNGEHGQYSLLSKITFDKCKNFFVCQVCGFRSRLHTNVNRHVAIEHTKIFPHVCDDCGKGFSSMLEYCKHLNSHLSEGIYLCQYCEYSTGQIEDLKIHLDFKHSADLPHKCSDCLMRFGNERELISHLPVHETT |  | binds |  | binds |
